Test results: the supplement of paper PMC12819154, “High-throughput peptide-centric local stability assay extends protein–ligand identification to membrane proteins, tissues and bacteria” (Nature Structural & Molecular Biology, 2025)
This is one part of the list. Most entries show no effect beyond the scatter of the controls.

By UniProt entry, the sequences of proteins in these tests, tags left out. Where a name states a change or a piece, a line headed by the entry shows the natural chain unless it says otherwise.
UniProt Q2NL98: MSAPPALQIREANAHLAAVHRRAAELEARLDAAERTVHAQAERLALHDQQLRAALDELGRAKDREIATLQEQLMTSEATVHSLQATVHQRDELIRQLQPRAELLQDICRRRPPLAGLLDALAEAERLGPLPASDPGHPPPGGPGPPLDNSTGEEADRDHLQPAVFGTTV
UniProt Q16644, whole entry, looked up: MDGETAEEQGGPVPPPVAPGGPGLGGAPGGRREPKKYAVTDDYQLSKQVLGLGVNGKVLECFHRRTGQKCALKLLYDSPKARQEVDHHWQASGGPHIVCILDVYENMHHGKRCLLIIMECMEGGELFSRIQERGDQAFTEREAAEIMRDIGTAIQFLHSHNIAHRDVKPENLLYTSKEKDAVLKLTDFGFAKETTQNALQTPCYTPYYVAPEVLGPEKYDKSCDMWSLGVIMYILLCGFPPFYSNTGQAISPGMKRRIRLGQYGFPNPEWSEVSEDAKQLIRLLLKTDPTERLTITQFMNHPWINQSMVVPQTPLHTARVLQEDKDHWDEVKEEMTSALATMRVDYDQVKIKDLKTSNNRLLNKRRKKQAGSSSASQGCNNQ
UniProt Q15572: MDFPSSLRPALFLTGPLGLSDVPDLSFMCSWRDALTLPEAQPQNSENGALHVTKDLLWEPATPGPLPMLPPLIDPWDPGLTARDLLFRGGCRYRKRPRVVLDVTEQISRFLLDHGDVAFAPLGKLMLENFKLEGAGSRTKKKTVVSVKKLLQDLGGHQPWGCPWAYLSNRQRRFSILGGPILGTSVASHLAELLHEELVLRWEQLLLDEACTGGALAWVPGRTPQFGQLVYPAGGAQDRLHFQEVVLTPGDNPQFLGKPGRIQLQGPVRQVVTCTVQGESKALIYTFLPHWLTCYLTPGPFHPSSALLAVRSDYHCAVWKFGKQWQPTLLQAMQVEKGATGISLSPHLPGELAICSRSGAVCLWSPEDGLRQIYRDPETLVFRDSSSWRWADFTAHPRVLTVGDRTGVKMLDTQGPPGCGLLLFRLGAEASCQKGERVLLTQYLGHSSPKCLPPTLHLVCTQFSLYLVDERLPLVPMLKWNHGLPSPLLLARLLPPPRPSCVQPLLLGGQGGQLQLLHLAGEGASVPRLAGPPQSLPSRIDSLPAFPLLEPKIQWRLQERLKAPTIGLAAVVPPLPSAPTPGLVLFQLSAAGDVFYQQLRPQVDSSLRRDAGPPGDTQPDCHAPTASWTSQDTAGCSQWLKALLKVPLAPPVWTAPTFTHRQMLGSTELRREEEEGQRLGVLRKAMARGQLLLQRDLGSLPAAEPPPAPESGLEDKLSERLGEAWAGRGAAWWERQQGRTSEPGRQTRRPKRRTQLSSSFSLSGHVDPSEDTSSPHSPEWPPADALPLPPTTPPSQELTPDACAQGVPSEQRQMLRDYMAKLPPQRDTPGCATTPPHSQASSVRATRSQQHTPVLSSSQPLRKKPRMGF
UniProt Q16621: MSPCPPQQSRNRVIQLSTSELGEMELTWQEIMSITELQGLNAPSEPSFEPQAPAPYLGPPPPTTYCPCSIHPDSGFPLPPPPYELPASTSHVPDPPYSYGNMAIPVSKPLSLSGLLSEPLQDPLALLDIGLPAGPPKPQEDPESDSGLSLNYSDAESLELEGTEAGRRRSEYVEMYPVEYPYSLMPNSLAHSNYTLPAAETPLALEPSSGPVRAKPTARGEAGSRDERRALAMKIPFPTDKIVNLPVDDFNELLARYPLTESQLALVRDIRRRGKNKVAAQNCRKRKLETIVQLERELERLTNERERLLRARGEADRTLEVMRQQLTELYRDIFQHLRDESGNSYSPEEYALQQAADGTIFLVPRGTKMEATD
UniProt Q2NL68: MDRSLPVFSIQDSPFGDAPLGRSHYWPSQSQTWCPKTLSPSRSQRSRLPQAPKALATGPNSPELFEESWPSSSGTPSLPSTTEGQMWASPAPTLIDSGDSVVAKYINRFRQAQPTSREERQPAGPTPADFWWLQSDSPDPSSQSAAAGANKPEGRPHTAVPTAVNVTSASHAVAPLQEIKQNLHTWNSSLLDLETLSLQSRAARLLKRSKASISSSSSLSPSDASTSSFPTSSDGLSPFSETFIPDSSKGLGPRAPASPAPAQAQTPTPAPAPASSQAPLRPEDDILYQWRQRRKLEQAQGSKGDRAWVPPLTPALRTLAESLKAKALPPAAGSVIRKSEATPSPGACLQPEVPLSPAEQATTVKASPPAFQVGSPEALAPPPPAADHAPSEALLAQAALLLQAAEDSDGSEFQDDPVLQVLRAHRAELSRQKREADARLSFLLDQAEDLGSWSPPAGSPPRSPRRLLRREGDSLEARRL
UniProt Q32P44: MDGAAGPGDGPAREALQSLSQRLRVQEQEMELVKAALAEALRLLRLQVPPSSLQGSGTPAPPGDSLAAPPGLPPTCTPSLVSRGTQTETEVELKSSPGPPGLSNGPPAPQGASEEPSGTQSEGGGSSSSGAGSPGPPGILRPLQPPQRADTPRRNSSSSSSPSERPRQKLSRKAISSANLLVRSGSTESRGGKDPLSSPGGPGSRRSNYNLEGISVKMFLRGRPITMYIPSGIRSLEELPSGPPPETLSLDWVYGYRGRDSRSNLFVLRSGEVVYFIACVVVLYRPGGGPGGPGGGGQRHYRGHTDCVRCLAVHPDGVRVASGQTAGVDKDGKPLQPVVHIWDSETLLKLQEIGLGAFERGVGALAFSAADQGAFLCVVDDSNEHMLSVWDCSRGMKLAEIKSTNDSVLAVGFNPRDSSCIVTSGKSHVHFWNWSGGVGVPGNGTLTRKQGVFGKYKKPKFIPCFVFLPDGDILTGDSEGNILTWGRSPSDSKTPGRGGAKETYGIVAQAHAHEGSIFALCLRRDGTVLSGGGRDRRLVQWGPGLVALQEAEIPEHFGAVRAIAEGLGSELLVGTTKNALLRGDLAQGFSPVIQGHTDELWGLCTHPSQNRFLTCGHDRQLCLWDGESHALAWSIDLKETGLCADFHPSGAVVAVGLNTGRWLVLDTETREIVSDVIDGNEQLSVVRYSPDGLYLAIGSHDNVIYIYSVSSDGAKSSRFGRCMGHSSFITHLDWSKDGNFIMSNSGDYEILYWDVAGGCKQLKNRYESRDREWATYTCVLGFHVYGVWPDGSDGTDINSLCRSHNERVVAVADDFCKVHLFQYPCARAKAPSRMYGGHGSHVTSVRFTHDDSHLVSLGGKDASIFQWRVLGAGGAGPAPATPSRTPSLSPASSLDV
UniProt Q15942: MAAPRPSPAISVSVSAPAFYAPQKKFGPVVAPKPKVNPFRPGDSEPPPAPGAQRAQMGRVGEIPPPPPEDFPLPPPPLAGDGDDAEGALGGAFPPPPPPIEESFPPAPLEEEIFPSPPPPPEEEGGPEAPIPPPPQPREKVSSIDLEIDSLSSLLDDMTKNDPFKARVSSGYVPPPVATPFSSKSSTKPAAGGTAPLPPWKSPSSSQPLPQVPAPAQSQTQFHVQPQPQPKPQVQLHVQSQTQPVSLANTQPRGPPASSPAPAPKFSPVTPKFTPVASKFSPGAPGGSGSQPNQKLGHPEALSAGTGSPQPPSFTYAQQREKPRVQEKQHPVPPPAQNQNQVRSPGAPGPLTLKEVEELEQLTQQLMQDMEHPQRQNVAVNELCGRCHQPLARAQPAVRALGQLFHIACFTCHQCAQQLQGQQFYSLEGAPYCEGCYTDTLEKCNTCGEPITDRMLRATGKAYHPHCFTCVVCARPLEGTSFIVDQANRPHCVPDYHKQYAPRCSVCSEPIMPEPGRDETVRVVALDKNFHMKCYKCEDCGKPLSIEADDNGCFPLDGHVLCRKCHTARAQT
UniProt Q2KHM9: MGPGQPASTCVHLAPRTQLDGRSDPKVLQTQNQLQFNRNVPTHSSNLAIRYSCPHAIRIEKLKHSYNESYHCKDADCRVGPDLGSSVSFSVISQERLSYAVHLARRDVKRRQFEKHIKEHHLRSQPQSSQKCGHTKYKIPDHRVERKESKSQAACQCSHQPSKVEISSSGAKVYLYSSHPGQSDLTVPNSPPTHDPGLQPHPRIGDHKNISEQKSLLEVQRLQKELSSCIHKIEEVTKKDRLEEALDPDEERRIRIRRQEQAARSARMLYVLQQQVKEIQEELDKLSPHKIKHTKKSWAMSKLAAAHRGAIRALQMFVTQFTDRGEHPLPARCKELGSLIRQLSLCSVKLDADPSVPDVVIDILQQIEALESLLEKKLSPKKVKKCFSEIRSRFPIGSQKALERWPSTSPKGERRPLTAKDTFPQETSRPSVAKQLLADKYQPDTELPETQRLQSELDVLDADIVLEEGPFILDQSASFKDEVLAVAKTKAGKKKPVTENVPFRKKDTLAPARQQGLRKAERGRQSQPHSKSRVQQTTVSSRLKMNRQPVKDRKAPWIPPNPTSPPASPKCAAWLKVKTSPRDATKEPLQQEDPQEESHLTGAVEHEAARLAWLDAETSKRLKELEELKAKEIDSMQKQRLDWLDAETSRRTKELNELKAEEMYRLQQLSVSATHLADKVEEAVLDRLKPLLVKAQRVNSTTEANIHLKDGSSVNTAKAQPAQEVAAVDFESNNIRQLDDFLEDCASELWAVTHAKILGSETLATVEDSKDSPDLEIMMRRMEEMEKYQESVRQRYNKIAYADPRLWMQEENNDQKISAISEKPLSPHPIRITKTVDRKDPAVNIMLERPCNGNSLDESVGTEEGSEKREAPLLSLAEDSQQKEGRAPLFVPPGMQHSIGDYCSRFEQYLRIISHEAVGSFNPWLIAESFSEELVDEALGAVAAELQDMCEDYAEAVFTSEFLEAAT
UniProt Q15233: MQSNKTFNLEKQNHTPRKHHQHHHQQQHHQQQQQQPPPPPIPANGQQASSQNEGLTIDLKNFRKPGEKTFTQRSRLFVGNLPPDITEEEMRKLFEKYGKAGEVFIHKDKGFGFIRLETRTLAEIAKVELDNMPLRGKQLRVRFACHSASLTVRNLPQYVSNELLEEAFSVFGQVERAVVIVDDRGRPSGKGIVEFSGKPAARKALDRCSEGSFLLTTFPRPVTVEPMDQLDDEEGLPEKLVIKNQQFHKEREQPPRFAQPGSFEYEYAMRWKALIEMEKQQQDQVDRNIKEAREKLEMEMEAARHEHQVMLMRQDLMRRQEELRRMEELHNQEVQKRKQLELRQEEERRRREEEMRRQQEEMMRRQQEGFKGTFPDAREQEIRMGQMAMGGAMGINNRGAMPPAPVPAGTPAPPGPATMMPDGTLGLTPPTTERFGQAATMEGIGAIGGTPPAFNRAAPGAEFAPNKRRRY
UniProt Q495W5: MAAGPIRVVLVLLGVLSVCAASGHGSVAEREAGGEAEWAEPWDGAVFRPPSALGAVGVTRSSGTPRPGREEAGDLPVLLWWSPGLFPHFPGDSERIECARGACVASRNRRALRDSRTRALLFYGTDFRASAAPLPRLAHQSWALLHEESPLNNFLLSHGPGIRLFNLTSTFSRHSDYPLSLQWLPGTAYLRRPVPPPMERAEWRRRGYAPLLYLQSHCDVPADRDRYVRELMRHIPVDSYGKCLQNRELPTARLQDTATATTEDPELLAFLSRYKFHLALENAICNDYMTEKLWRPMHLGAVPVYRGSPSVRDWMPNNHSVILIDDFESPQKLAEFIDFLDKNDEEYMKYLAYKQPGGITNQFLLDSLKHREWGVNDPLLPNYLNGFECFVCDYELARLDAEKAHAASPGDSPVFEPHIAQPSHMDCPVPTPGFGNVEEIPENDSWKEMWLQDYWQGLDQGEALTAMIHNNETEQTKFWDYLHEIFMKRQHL
UniProt Q2M3W8: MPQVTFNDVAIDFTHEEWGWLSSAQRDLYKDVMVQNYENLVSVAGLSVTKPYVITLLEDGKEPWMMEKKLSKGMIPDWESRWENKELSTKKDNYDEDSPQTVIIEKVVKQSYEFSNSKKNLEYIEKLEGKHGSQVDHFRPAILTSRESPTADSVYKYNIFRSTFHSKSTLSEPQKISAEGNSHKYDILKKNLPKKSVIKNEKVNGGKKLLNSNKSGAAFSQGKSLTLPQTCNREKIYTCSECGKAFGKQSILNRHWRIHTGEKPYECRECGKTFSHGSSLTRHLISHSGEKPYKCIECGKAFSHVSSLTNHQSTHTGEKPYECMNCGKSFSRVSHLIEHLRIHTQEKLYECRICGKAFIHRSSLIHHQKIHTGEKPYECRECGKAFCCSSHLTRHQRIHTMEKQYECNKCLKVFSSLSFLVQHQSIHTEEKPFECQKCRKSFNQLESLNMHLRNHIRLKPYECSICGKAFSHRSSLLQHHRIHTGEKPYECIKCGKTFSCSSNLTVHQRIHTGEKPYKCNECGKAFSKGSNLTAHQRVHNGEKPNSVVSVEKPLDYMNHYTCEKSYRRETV

What follows are targets tested with CN[C@@H]1C[C@H]2O[C@@](C)([C@@H]1OC)n1c3ccccc3c3c4c(c5c6ccccc6n2c5c31)C(=O)NC4 [staurosporine] (assay: log2 fold change of tryptic peptide abundance, ligand vs vehicle (limited proteolysis) (log2 ratio); higher = more trypsin-susceptible (destabilized)). Conditions: ligand concentration: 20 uM; sample: K562 cleared lysate; digestion: 4 min, 22 C (HT-PELSA RT4min, Orbitrap Astral).

**Q.** With “UniProt Q16829 (peptide sequence: LRDDGCQAYYLQGGFNK, peptide start residue: 161)” as the target, how does the log2 fold change read?
**A.** The log2 fold change was -0.627.

**Q.** With “VMAC (peptide sequence: EANAHLAAVHRR, peptide start residue: 11) (UniProt Q2NL98)” as the target, how does the log2 fold change read?
**A.** The log2 fold change was 0.377.

**Q.** For “MAPKAPK3 (peptide sequence: LTDFGFAK, peptide start residue: 205) (UniProt Q16644)”, which log2 fold change is on record?
**A.** Its log2 fold change is -0.638.

**Q.** “TAF1C (peptide sequence: ALLKVPLAPPVWTAPTFTHR, peptide start residue: 642) (UniProt Q15572)” was tested. Which log2 fold change did it give?
**A.** Its log2 fold change is -0.604.

**Q.** How did the log2 fold change turn out when “NFE2 (peptide sequence: RKLETIVQLER, peptide start residue: 286) (UniProt Q16621)” was run?
**A.** The log2 fold change was -0.43.

**Q.** How did the log2 fold change turn out when “PROSER3 (peptide sequence: PHTAVPTAVNVTSASHAVAPLQEIK, peptide start residue: 156) (UniProt Q2NL68)” was run?
**A.** Its log2 fold change is -0.541.

**Q.** How did the log2 fold change turn out when “EML3 (peptide sequence: MYGGHGSHVTSVR, peptide start residue: 834) (UniProt Q32P44)” was run?
**A.** The log2 fold change was -0.221.

**Q.** “ZYX (peptide sequence: FGPVVAPKPK, peptide start residue: 26) (UniProt Q15942)” was tested. Which log2 fold change did it give?
**A.** The log2 fold change was 0.129.

**Q.** “UniProt Q2KHM9 (peptide sequence: VNSTTEANIHLK, peptide start residue: 698)” was tested. Which log2 fold change did it give?
**A.** The log2 fold change was 0.499.

**Q.** How did the log2 fold change turn out when “NONO (peptide sequence: LFVGNLPPDITEEEMRK, peptide start residue: 76) (UniProt Q15233)” was run?
**A.** The log2 fold change was -0.399.

**Q.** Which log2 fold change does the source give for “TRIP11 (peptide sequence: EKVFAVLNEK, peptide start residue: 1099) (UniProt Q15643)” here?
**A.** Its log2 fold change is 0.574.

**Q.** For “FUT11 (peptide sequence: LWRPMHLGAVPVYR, peptide start residue: 293) (UniProt Q495W5)”, which log2 fold change is on record?
**A.** Its log2 fold change is -0.721.

**Q.** With “TTF1 (peptide sequence: VSGDDFSVPSK, peptide start residue: 402) (UniProt Q15361)” as the target, how does the log2 fold change read?
**A.** The log2 fold change was 0.18.

**Q.** For “UniProt Q2M3W8 (peptide sequence: ESPTADSVYK, peptide start residue: 147)”, which log2 fold change is on record?
**A.** Its log2 fold change is -0.0612.

**Q.** “KIF14 (peptide sequence: FNHPVEVQK, peptide start residue: 898) (UniProt Q15058)” was tested. Which log2 fold change did it give?
**A.** The log2 fold change was 0.633.
